This is one part of the list.

Amino acid sequences for entries named in this document (tags omitted).
UniProt Q0JBA9, entry or part of it: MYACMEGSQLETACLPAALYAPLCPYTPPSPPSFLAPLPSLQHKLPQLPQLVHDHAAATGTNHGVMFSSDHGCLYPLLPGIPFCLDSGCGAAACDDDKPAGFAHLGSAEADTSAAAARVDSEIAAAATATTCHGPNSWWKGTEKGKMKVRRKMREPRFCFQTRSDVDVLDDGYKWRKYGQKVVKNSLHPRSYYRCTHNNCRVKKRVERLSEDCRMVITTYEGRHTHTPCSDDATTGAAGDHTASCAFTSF

The assay addresses OsWRKY34 (Oryza sativa, UniProt Q0JBA9 1-250). In words: protein-binding microarray (RPBM); PBS, 2% BSA, 51.3 ng/ul salmon testes DNA, 50 uM zinc acetate, 200 nM TF, 25 C, 1 h; high values mean tight binding. The settings on record: protein: recombinant; tags: N-terminal polyhistidine and DsRed monomer fusion (pET32a); label: CyDye5-dUTP incorporated in the synthesized complementary strand; 3' TTTTT single-stranded linker to array surface; dsDNA, one strand shown. Put shortly: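 For the binding signal, per-feature fluorescence intensity was read in arbitrary units on an Axon 4000B scanner. Before scanning, a 2% BSA-blocked custom Agilent array made double-stranded with Cy5-dUTP was washed after 1 h at 25 °C with 200 nM protein and 50 µM zinc acetate. The proteins were Ni–NTA-purified transcription factors with N-terminal polyhistidine and DsRed fusions, expressed in E. coli BL21-CodonPlus.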
Consider “TACATGTCACATATTACGTCCATTTGAGTTCAATTTTTCTCGGAGTCACCTAGTGCAG”, for which the binding signal is 9590 fluorescence intensity (a.u.).
“CCCCGAACACGCAGCCTCGCCACGCCACGCGCCCACGCTGCGGAGTCACCTAGTGCAG”: the binding signal is 10700 fluorescence intensity (a.u.).
To “ACATCGAGAGACCGAAATTTGGCCCACACCCAGGCTCAGCCGGAGTCACCTAGTGCAG” belongs 8710 fluorescence intensity (a.u.).
As to “TGGTATGTGTGTTGGTGGTGTGTTCAGATTTGTTGATTTACGGAGTCACCTAGTGCAG”, the binding signal was 9110 fluorescence intensity (a.u.).
Regarding “AAATTTACCTCCCTAAGTGGTTTTGTCCTATGTTACGTCTCGGAGTCACCTAGTGCAG”, the binding signal is 9280 fluorescence intensity (a.u.).
With “TCCGTCTAACCAAATACACATAGTAATCCTTTAGTTGTATCGGAGTCACCTAGTGCAG” the figure was 8410 fluorescence intensity (a.u.).
“AATCCTGAAGATGCTACTGCTACACCTTTTCTTTTGGCCTCGGAGTCACCTAGTGCAG”: the binding signal was 10600 fluorescence intensity (a.u.).
“TTAATCAACTCGATTTCTGTCCAAGTTCGTCTCTATTGACCGGAGTCACCTAGTGCAG”: the binding signal is 8520 fluorescence intensity (a.u.).
On to “TGCACTTACTTGTCTGATTTTGCACTCAGTTGGGGATATCCGGAGTCACCTAGTGCAG”, for which the binding signal is 8760 fluorescence intensity (a.u.).
As to “TTCGCGCGCTGCTCGCTCGCTTGGTTGGTTGGTTGATTGCCGGAGTCACCTAGTGCAG”, the binding signal was 15200 fluorescence intensity (a.u.).
“TCCCGCATGCGCCCGGTCCACCGCGCCTCGCCTCGCTGACCGGAGTCACCTAGTGCAG”: the binding signal was 8550 fluorescence intensity (a.u.).
For the sequence “GTTCTTTTTTAGTTTTGGAAGGGGACCTTTCTTGGGGTATCGGAGTCACCTAGTGCAG”, the binding signal is 13500 fluorescence intensity (a.u.).
As to “TGCCAGGCCAACTCTAGCTTCAAATCCAGGGGAGGAATCACGGAGTCACCTAGTGCAG”, the binding signal is 8700 fluorescence intensity (a.u.).
For the sequence “CGCATCATCCGCCCGTACACGTGTCCTGCATCGACGGCGCCGGAGTCACCTAGTGCAG”, the binding signal was 11200 fluorescence intensity (a.u.).
To “ACAGTGGTTATTAATGCTATTTATATCTTTTCTTATTAAGCGGAGTCACCTAGTGCAG” belongs 9390 fluorescence intensity (a.u.); to “AACTGCGGCATTGGCGATGTGGTTTCGCTGCTTGGTCATCCGGAGTCACCTAGTGCAG”, 8460 fluorescence intensity (a.u.); to “TTTTTTTCCTTTTTTCCTGTTGGTGTTGCGCGGTGGGCGACGGAGTCACCTAGTGCAG”, 8980 fluorescence intensity (a.u.).
Regarding “ACCTCCACCCCGAGAAGGTGACATTTCTCCCTAATTATCCCGGAGTCACCTAGTGCAG”, the binding signal was 8770 fluorescence intensity (a.u.).
As for “GACTTTACTCTATCTTCATTTCCGCACAACGTTGACTGGGCGGAGTCACCTAGTGCAG”, the binding signal is 10500 fluorescence intensity (a.u.).
For the sequence “ACCACCACGCGCGCACGAAACCCGCGCACTTTCCCCTCCTCGGAGTCACCTAGTGCAG”, the binding signal was 8630 fluorescence intensity (a.u.).
To “TTTATTTATCTTTTTCTCCATTTTTTCTGTTCTTCCTTTCCGGAGTCACCTAGTGCAG” belongs 9750 fluorescence intensity (a.u.); to “TCAATGGTTGGTGGGGTTTTTTAGTGGGCTGTCGCCGAGCCGGAGTCACCTAGTGCAG”, 11700 fluorescence intensity (a.u.); to “TATGTTCTTGATTTGTCCTGTTACATTGCTGACATATGTGCGGAGTCACCTAGTGCAG”, 10500 fluorescence intensity (a.u.).
As to “GACCGTAATTACCTTAGTGCAAATTCTACATATCTATATACGGAGTCACCTAGTGCAG”, the binding signal was 9350 fluorescence intensity (a.u.).
For the sequence “ATTACGGCAGTTTTCTTTATAGTCTCTACTCGTATATATACGGAGTCACCTAGTGCAG”, the binding signal was 8690 fluorescence intensity (a.u.).
With “AAAAACTGTCTCGTCGTCTCGAACCTTCTCGCCTCCCTCACGGAGTCACCTAGTGCAG” the figure was 9610 fluorescence intensity (a.u.); with “CTCAGTTTGATCATATGGTCATTAAAGTTTTCATTATCTTCGGAGTCACCTAGTGCAG”, 11400 fluorescence intensity (a.u.); with “TTTCATCCCCACCATTTTTTTTTTGTTTGACCTCGAAAGGCGGAGTCACCTAGTGCAG”, 8870 fluorescence intensity (a.u.).
Turning to “CATTTTATTTCTCACACTTGCTTTACTTATAAATTTATTTCGGAGTCACCTAGTGCAG”, the binding signal was 9110 fluorescence intensity (a.u.).
Turning to “TAATATTTTCATTGCTTTATGTTGAAACTTTTTTATTTCCCGGAGTCACCTAGTGCAG”, the binding signal is 9010 fluorescence intensity (a.u.).
“AGGGATATTCACTATTTTCATATAACGTTTGACCACTCGTCGGAGTCACCTAGTGCAG”: the binding signal was 8950 fluorescence intensity (a.u.).
As to “ATCTCTTTCGATCGGTCGATCTGTAGCTGCTCCTGCTGTTCGGAGTCACCTAGTGCAG”, the binding signal is 9190 fluorescence intensity (a.u.).
With “TGATTGAGACGCTGACTTTTCCTAGTGTAAGTTTGACCACCGGAGTCACCTAGTGCAG”, the binding signal was 11800 fluorescence intensity (a.u.).
As for “AAACTGCCATGCCGCATTCTTCTTGAACTCGGACTCTTCTCGGAGTCACCTAGTGCAG”, the binding signal is 8310 fluorescence intensity (a.u.).
With “CGGTGGGTGTGGGAGTTCAGCAAGTTTGACTCTGGGATTTCGGAGTCACCTAGTGCAG” the figure was 12000 fluorescence intensity (a.u.).
To “TACACTCTCACCCGTAACATTACACGTAATAAATTTCACACGGAGTCACCTAGTGCAG” belongs 9000 fluorescence intensity (a.u.); to “GTCCAGCGCGGCCGCCTCATCGTCGACGCCGTCGCCGCCCCGGAGTCACCTAGTGCAG”, 8030 fluorescence intensity (a.u.).
In the case of “TTCTCCACGGCAAACCACCACCGGCGTCACCAGCCCACCACGGAGTCACCTAGTGCAG”, the binding signal was 8110 fluorescence intensity (a.u.).
With “AAACTACCGATTTTCTCCAAACTTATCACCAATTATATGACGGAGTCACCTAGTGCAG”, the binding signal is 8520 fluorescence intensity (a.u.).
With “TGCTCTATATACCTGTGAAATTTGCTATATTGTTTCTATTCGGAGTCACCTAGTGCAG”, the binding signal is 9100 fluorescence intensity (a.u.).
Regarding “GCCAGTCAGTCTACATCCATGCAGCTTTGATCATTTCAATCGGAGTCACCTAGTGCAG”, the binding signal was 9580 fluorescence intensity (a.u.).
With “GATATGTACGGTTTTTCTTCTCTCAACTCGTACTAGATAGCGGAGTCACCTAGTGCAG” the figure was 8090 fluorescence intensity (a.u.).

These data come from paper PMC7819943, “Rice protein-binding microarrays: a tool to detect cis-acting elements near promoter regions in rice”.
